Measurements as given in patent US7745647B2, “Diterpenes from the fruiting body of Antrodia camphorata and pharmaceutical compositions thereof” (Kang Jian Biotech Corp, Ltd., priority 2006, dated 2010).
Some entries share one result that the patent states for a list of compounds. At least one structure is not confirmed: it was looked up by name or label, or the drawing left a doubt.

System: primary cultures of neonatal cortical neurons exposed to 5 μM Aβ25-35
Experiment: Protection of cortical neurons against Aβ25-35-induced cell death (MTT reduction analysis)
Format: cell-based, rat
Conditions: 1-20 μM; 5 μM Aβ
Method: In this study, primary cultures of neonatal cortical neurons from the cerebral cortex of Harlan Sprague-Dawley rat pups at postnatal day were used as target cells. Primary cultures of neonatal cortical neurons were prepared from the cerebral cortex of Harlan Sprague-Dawley rat pups at postnatal day 1. Briefly, each pup was decapitated and the cortex was digested in 0.5 mg/mL papain at 37° C. for 15 min. The tissue was dissociated in Hibernate A medium (containing B27 supplement) by aspirating trituration to separate cells. Cells were plated (at the density of 5×10^4 cells/cm^2) onto poly-D-lysine-coated dishes and maintained in Neurobasal medium containing B27 supplement, 10 units/mL penicillin, […], and 0.5 mg/mL glutamine (5% CO2/9% O2) for 3 days. Cells were then exposed to cytosine-β-D-arabinofuranoside (5 μM) for 1 day to inhibit proliferation of non-neuronal cells. The cells were used for the experiment on the fifth day.
The effects of isolated pure compounds on Aβ25-35-treated cell apoptosis were determined by a MTT method for evaluating neuroprotective activity. The mitochondrial dehydrogenase activity was assayed by reduction cleavage of the tetrazolium salt MTT (3-[4,5-dimethylthiazol-2-yl]-2,5-diphenyltetrazolium bromide), to yield a purple dye with absorbance read at about 570 nm. Results are expressed as percentage of control absorbance. Cortical neurons prepared as described above were incubated with vehicle (0.1% DMSO) or various concentrations of the compounds for 2 h then exposed to 5 μM Aβ for 40 h. The cell viability was assessed by MTT reduction analysis. Cells were incubated with minimum essential medium containing 0.5 mg/mL MTT for 1 h. The medium was aspirated, and the formazan particle was dissolved with DMSO. The absorbance at 600 nm was measured using an enzyme-linked immunosorbent assay reader. Results are expressed as means±S.D. and were analyzed by ANOVA with post hoc multiple comparison with a Bonferroni test.

| SMILES | effect on Aβ-induced neurotoxicity |
| --- | --- |
| C=C1CCC2[C@@](C)(CO)CCC[C@]2(C)[C@H]1CCC1CCOC1=O (stereo partly drawn) [Compound 1, 19-hydroxylabda-8(17)-en-16,15-olide] | reduced Aβ-induced neurotoxicity in a concentration-dependent manner |
| C=C1CC[C@H]2[C@@](C)(CO)CCC[C@]2(C)[C@H]1CCC1=CCOC1=O [Compound 4, 19-hydroxylabda-8(17),13-dien-16,15-olide] | reduced Aβ-induced neurotoxicity in a concentration-dependent manner |
| C=C1CCC2C(C)(CO)C(O)CCC2(C)C1C=CC1=CCOC1=O (stereo not drawn) [Compound 5, 14-deoxy-11,12-didehydroandrographolide] | reduced Aβ-induced neurotoxicity in a concentration-dependent manner |
